{"source": "PubChem BioAssay AID1347076", "about": "(National Center for Advancing Translational Sciences (NCATS), 2019)", "note": "Out of some 400,000 compounds screened, about 13,000 (3.2%) were called active. The shares of active, inactive and inconclusive entries below differ from those in the screen. Calls come from the whole dose curve; as a rule, active = well fitted cell-killing curve with a large enough effect; inconclusive = small, poorly fitted or top-dose-only effect, or effect the other way; inactive = flat fitted curve, though single readings scatter. Potencies of inconclusive entries are doubtful fits and often do not repeat. % is set by controls: 0 for no effect and ±100 for the full control effect; potency is the fitted concentration of half-maximal effect.", "data": [{"assay": "qHTS assay for MDR1-selective chemotherapeutics: Primary screen using the drug-selected MDR subline cells KB-V1; note: nearly all actives have a fitted effect of over 60% in size", "settings": "KB-V1 MDR cells viability, CellTiter-Glo, 72 h; activity change, negative = cytotoxicity: at 46.1 µM (top of the series)", "in_short": "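qHTS viability screen in drug-selected KB-V1 MDR cells: 72 h compound treatment at 37 degrees C, ATP luminescence end point.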", "values": [{"smiles": "COc1ccc(OC)c(/C=C2\\N=C(c3ccccc3)OC2=O)c1", "Potency": "inactive"}, {"smiles": "CCn1cc(C(=O)NCc2cccc(F)c2)c(=O)c2cc(F)c(N3CCN(C(=O)c4ccco4)CC3)cc21", "Potency": "inconclusive: 20.6 µM [cytotoxic, single point]"}, {"smiles": "Cn1cc(/C=C(\\C#N)C(=O)Nc2cccc([N+](=O)[O-])c2)c2ccccc21", "Potency": "inactive"}, {"smiles": "CCN1CCN(CCCNC(=O)C2c3ccccc3C(=O)N(c3ccc(OC)cc3)C2c2ccc(OC)cc2)CC1", "note": "(stereo unspecified)", "Potency": "inconclusive: 14.6 µM [rising, single point]"}, {"smiles": "O=S(=O)(c1ccc(Cl)s1)N1CCN(C/C=C/c2ccccc2)CC1", "Potency": "inconclusive: 32.6 µM [cytotoxic, single point]"}, {"smiles": "Cc1ccc(NC(=O)C(OC(=O)c2ccc(O)cc2)c2ccccc2)cc1Cl", "note": "(stereo unspecified)", "Potency": "inactive"}, {"smiles": "CC(=O)c1ccc(-n2c(CCC(=O)O)ccc2-c2cccs2)cc1", "Potency": "inconclusive: 29.1 µM [rising, single point]"}, {"smiles": "COc1ccc(C(=O)OCC(=O)N2CCOCC2)cc1S(=O)(=O)N1CCOCC1", "Potency": "inconclusive: 29.1 µM [rising, single point]"}, {"smiles": "O=C(O)Cn1cnc2c(=S)nc[nH]c21", "Potency": "inactive"}, {"smiles": "C[C@]1(C(=O)NCCCNc2ncc(C(F)(F)F)cc2Cl)C=C[C@@H](Cc2ccccc2)N1C(=O)c1ccccc1", "Potency": "inconclusive: 25.9 µM [cytotoxic, single point]"}, {"smiles": "CC(C)CC1=NN2C(=N)/C(=C\\c3coc4ccccc4c3=O)C(=O)N=C2S1", "Potency": "inactive"}, {"smiles": "COc1ccccc1-c1nc(C(=O)NCC2CCCO2)cc2c1[nH]c1ccccc12", "note": "(stereo unspecified)", "Potency": "inactive"}, {"smiles": "C[C@H](NC(=O)c1nc[nH]c1C(=O)NCCCCCNC(=O)OC(C)(C)C)C(=O)OC(C)(C)C", "Potency": "active: 23.1 µM"}, {"smiles": "NCCc1nnc(SCc2ccccc2Cl)o1", "Potency": "inactive"}, {"smiles": "O=C(O)c1ccc(N/N=C/c2cn(Cc3ccc(F)cc3)c3ccccc23)cc1", "Potency": "inactive"}, {"smiles": "O=C(COc1ncnc2ccccc12)NC1CCS(=O)(=O)C1", "note": "(stereo unspecified)", "Potency": "inconclusive: 11.6 µM [rising, partial curve]"}, {"smiles": "O=c1oc2ccccc2c(N2CCN(c3ccc(F)cc3)CC2)c1CN1CCCC1", "Potency": "inactive"}, {"smiles": "Cc1c(CC(C)C)nc(N)c(C#N)c1-c1ccccc1", "Potency": "inconclusive: 29.1 µM [cytotoxic, single point]"}, {"smiles": "C[C@H](CO)N1C[C@H](C)[C@@H](CN(C)Cc2ccc(Oc3ccccc3)cc2)Oc2c(NC(=O)c3ccncc3)cccc2C1=O", "Potency": "inactive"}, {"smiles": "CCCCn1cc(S(=O)(=O)c2cc(C)ccc2C)c(=O)c2cc(F)c(F)cc21", "Potency": "inactive"}, {"smiles": "CCCNC(=O)C1(C)CCCN(Cc2c3ccccc3nn2C)C1", "note": "(stereo unspecified)", "Potency": "inconclusive: 20.6 µM [cytotoxic, single point]"}, {"smiles": "COc1cc(C2c3cc4c(cc3C3OC(=O)C2C3CO)OCO4)cc(OC)c1OC", "note": "(stereo unspecified)", "Potency": "active: 0.206 µM"}, {"smiles": "Cc1oc(-c2ccccc2F)nc1CN1CCC(C(=O)NCCc2ccccc2)CC1", "Potency": "inactive"}, {"smiles": "COc1ccc(/C=C(/NC(=O)c2ccccc2)C(=O)N2CCCCC2)cc1", "Potency": "inactive"}, {"smiles": "Oc1cccc2ccc(/C=C/c3ccccc3Br)nc12", "Potency": "inconclusive: 5.8 µM [cytotoxic, full curve, poor fit]"}, {"smiles": "COc1ccc(CNC(=O)C(C)n2nc(C)c3c(C)n(-c4ccccc4)nc3c2=O)c(OC)c1", "note": "(stereo unspecified)", "Potency": "inconclusive: 18.4 µM [cytotoxic, partial curve, poor fit]"}, {"smiles": "CCOc1ccc(CCNC(=O)CSc2nnnn2-c2ccccc2)cc1OCC", "Potency": "inconclusive: 4.11 µM [cytotoxic, partial curve]"}, {"smiles": "CCNc1nc(NCC)n2c(SCC(=O)N(CC)C3CCCCC3)nnc2n1", "Potency": "inconclusive: 29.1 µM [cytotoxic, single point]"}, {"smiles": "Cc1c(Cl)cccc1-n1ncc(C(=O)NC2CCCCC2)c1C1CCN(C(=O)OC(C)(C)C)CC1", "Potency": "inactive"}, {"smiles": "CC1(Cc2ccc(F)c(Cl)c2)C(=O)Nc2c(Cl)cccc21", "note": "(stereo unspecified)", "Potency": "inconclusive: 20.6 µM [cytotoxic, single point]"}, {"smiles": "C(=NOCc1ccccc1)c1cccnc1", "Potency": "inactive"}, {"smiles": "O=S(=O)(c1ccc2ccccc2c1)N1CCN(C(=S)Nc2ccc(F)cc2)CC1", "Potency": "inconclusive: 18.4 µM [cytotoxic, partial curve]"}, {"smiles": "O=C(c1ccccc1)[C@H]1CC=CC[C@H]1C(=O)O", "Potency": "inconclusive: 23.1 µM [rising, partial curve, poor fit]"}, {"smiles": "Cc1cccc(C)c1NC(=O)C(c1ccccc1)n1c(-c2ccccc2)nc2ccccc21", "note": "(stereo unspecified)", "Potency": "inconclusive: 18.4 µM [cytotoxic, single point]"}, {"smiles": "COC(=O)c1cc(-c2ccc(F)cc2)n(-c2ccccc2)n1", "Potency": "inactive"}, {"smiles": "O=S(=O)(c1ccccc1)N1CCN(CCOc2ccc(F)cc2)CC1", "Potency": "inconclusive: 16.4 µM [cytotoxic, partial curve]"}, {"smiles": "O=S(=O)(c1ccc(SCc2c(F)cccc2Cl)nc1)N1CCCC1", "Potency": "inconclusive: 16.4 µM [cytotoxic, single point]"}, {"smiles": "CCc1cccc(C)c1NC(=O)COC(=O)Cc1ccccc1", "Potency": "inactive"}, {"smiles": "COc1ccc(C(=O)CC2(O)C(=O)N(Cc3cccc(C(F)(F)F)c3)c3ccccc32)cc1", "note": "(stereo unspecified)", "Potency": "active: 14.6 µM"}, {"smiles": "CC(C)NC[C@H](O)c1ccc(O)c(O)c1", "Potency": "inconclusive: 29.1 µM [cytotoxic, single point]"}, {"smiles": "COc1ccc(CCNC(=O)NS(=O)(=O)c2ccc(C)cc2)cc1OC", "Potency": "inconclusive: 8.2 µM [rising, partial curve, poor fit]"}, {"smiles": "COc1ccccc1NC(=S)N(Cc1ccccc1)Cc1cccs1", "Potency": "inactive"}, {"smiles": "O=C(COC(=O)CNC(=O)c1ccccc1Cl)Nc1ccccc1Cl", "Potency": "inconclusive: 29.1 µM [rising, single point]"}, {"smiles": "COc1ccc(OCc2nnc(SCC(=O)NNC(=O)c3ccc(C)cc3)n2C)cc1", "Potency": "inconclusive: 18.4 µM [rising, single point]"}, {"smiles": "COc1ccc(C)cc1NC(=O)Nc1cccc(OCc2cc(=O)n3ccc(C)cc3n2)c1", "Potency": "inactive"}, {"smiles": "C(#CCN1CCC(Cc2ccccc2)CC1)COCCOCc1ccccc1", "Potency": "inconclusive: 20.6 µM [cytotoxic, partial curve]"}, {"smiles": "Cn1ncc2c(N3CCN(c4ccccc4F)CC3)ncnc21", "Potency": "inconclusive: 14.1 µM [cytotoxic, single point]"}, {"smiles": "CCCCc1c(-c2ccc(OC)cc2)ncn1CCc1ccccc1OC", "Potency": "active: 14.6 µM"}, {"smiles": "Cc1cccc(C)c1NC(=O)c1c(-c2ccccc2)noc1C", "Potency": "inconclusive: 9.2 µM [cytotoxic, partial curve]"}, {"smiles": "Cc1ccc(CN2CCc3c(OCc4ccc(F)cc4)cccc3C2=O)cc1", "Potency": "active: 5.8 µM"}, {"smiles": "Cc1cccc(C)c1C(OCCN(C)C)C1CCCCC1", "note": "(stereo unspecified)", "Potency": "inconclusive: 10.3 µM [cytotoxic, partial curve, poor fit]"}, {"smiles": "CC(C)Cc1cc(CN2CCCC(CO)(Cc3cccc(Cl)c3)C2)[nH]n1", "note": "(stereo unspecified)", "Potency": "inactive"}, {"smiles": "CCOc1ccc(Nc2cc(C)nc(N3CCOCC3)n2)cc1", "Potency": "inactive"}, {"smiles": "COc1ccc(C2CC(c3ccccc3)=NN2C(=O)COC(=O)c2ccc(S(C)(=O)=O)cc2)cc1", "note": "(stereo unspecified)", "Potency": "inconclusive: 20.6 µM [cytotoxic, partial curve]"}, {"smiles": "N#Cc1cc(C(=O)c2cc(F)ccc2O)cn(Cc2ccccc2)c1=O", "Potency": "inconclusive: 16.4 µM [cytotoxic, partial curve]"}, {"smiles": "CC(=O)Nc1cccc(-c2ccnc3c2CC(C(=O)Nc2ccc(C(C)C)cc2)O3)c1", "note": "(stereo unspecified)", "Potency": "inconclusive: 29.1 µM [cytotoxic, partial curve, poor fit]"}, {"smiles": "CSc1ccc(/C=C2\\C=C(C(O)c3ccc(SC)cc3)c3ccccc32)cc1", "note": "(stereo unspecified)", "Potency": "inconclusive: 23.1 µM [cytotoxic, single point]"}, {"smiles": "CCc1cccc(C)c1NC(=O)CN1C(=O)C2(SCC(=O)N2c2cccc(F)c2)c2ccccc21", "note": "(stereo unspecified)", "Potency": "inactive"}, {"smiles": "Cc1cc(C)nc(N2CCCC(C(=O)NCCC3=CCCCC3)C2)n1", "note": "(stereo unspecified)", "Potency": "inconclusive: 14.6 µM [cytotoxic, partial curve]"}, {"smiles": "CCC(C)c1ccc(NC(=S)NCCn2cc(Cl)cn2)cc1", "note": "(stereo unspecified)", "Potency": "inconclusive: 29.1 µM [cytotoxic, single point]"}, {"smiles": "O=C(NCCCN1CCCC1=O)C1CCN(S(=O)(=O)c2ccccc2)CC1", "Potency": "inconclusive: 32.6 µM [cytotoxic, single point]"}, {"smiles": "COc1ccc2c(-c3ccccc3)cc(N3CCOCC3)nc2c1", "Potency": "inactive"}, {"smiles": "O=C(Nc1cccc(Cl)c1N1CCCC1)c1ccc(Br)o1", "Potency": "inconclusive: 29.1 µM [cytotoxic, single point]"}, {"smiles": "COc1cc(OC)c(C(=O)OC(C)C(=O)NCc2ccc3c(c2)OCO3)cc1OC", "note": "(stereo unspecified)", "Potency": "inconclusive: 23.1 µM [rising, single point]"}, {"smiles": "COc1cccc(Cl)c1NC(=O)N1CCN(c2cc(C)nc3ccccc23)CC1", "Potency": "inconclusive: 11.6 µM [cytotoxic, partial curve, poor fit]"}, {"smiles": "CCC1(c2ccccc2)NC(=O)N(CC(=O)N(C)Cc2c(F)cccc2Cl)C1=O", "note": "(stereo unspecified)", "activity change, negative = cytotoxicity": "inconclusive: -34.7% [cytotoxic]"}, {"smiles": "Cc1ccc(NC(=O)c2cccc(F)c2)cc1S(=O)(=O)N1CCCCCC1", "Potency": "inconclusive: 6.51 µM [cytotoxic, partial curve]"}, {"smiles": "Cc1ccc(C(=O)NCC(=O)Nc2ncccc2C)s1", "Potency": "inactive"}, {"smiles": "CC(O)(c1ccc(F)c(F)c1)c1nc(-c2ccc(S(C)(=O)=O)cc2)cs1", "note": "(stereo unspecified)", "Potency": "active: 20.6 µM"}, {"smiles": "Cc1ccc(C2/C(=C(/O)c3ccc4c(c3)CC(C)O4)C(=O)C(=O)N2CCCn2ccnc2)cc1", "note": "(stereo unspecified)", "Potency": "inconclusive: 29.1 µM [rising, single point]"}, {"smiles": "CCOC(=O)c1c(S(=O)(=O)N2CCCC(C(=O)NCc3cccc(C)c3)C2)c(C)n(C)c1C", "note": "(stereo unspecified)", "Potency": "inconclusive: 20.6 µM [rising, partial curve, poor fit]"}]}]}
